This passage reports cell number change and AC50 results from PubChem BioAssay AID2685 (National Center for Advancing Translational Sciences (NCATS), 2010).

The experiment in a line: qHTS Assay for Lipid Storage Modulators in Drosophila S3 Cells.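 On cell number change: cells counted by Cell Tracker Red CMTPX staining in the red channel.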 As to conditions: BODIPY lipid droplet fluorescence, 18-24 h; for cell number change: measured here: cell count max response, cells fed with added oleic acid. The method in brief:
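Drosophila S3 cells loaded with oleic acid (400 uM, as added) and compounds at several concentrations; lipid droplets imaged by 488-nm laser-scanning cytometry, 500–530 nm intensity and object ratio to cell channel. Percent activity normalized to 20 uM Triacsin C.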
(In general: Quantitative high-throughput screening tests each substance at several concentrations.)

Setting [1] is: measured here: lipid fluorescence (Fed channel) AC50, cells fed with added oleic acid.
[2] abbreviates: measured here: cell number channel AC50, cells fed with added oleic acid.

Some of the results follow. Shown are side measurements of this screen, not its main read-out; they come without a call. Compounds called inactive in the main read-out are mostly missing here. Words in brackets tell the shape of the fitted curve; partial curves, single points and poor fits give uncertain potencies.

As a reminder, the AC50 is the midpoint of the concentration-response curve, whichever way the signal moves. Read a high AC50 as activity only at high concentration. As for `CCc1nc2ccccc2c(=O)n1NC(=O)c1c(O)c2cccc3c2n(c1=O)CCC3`, the cell number change was 7.46%. In addition, the AC50 under setting [1] is 1.64 µM [falling, full curve].
Regarding `O=C(NCc1cccnc1)c1sc2cc(Cl)ccc2c1Cl`, the cell number change is -34.1%.
As to `CC(C)(C)OC(=O)N1CCC(c2c(C(=O)NC3CC3)cnn2-c2ccccc2)CC1`, the cell number change was -6.11%. The AC50 under setting [1] is 29.1 µM [rising, single point].
Consider `N#Cc1c(N)nc2c(c1N)CC(=O)N2c1ccc(Cl)cc1`, for which the AC50 was 0.0517 µM [rising, full curve] under setting [2] and 0.092 µM [rising, full curve] under setting [1].
Turning to `CC(C(=O)O)n1c2ccccc2c2cnn(C)c(=O)c21` (configuration not stated), the cell number change came to 6.31%. In addition, under setting [2], the AC50 was 0.00461 µM [falling, full curve, poor fit]. Under setting [1], the AC50 was 6.51 µM [falling, single point].
On to `CCN(C(=O)CCS(=O)(=O)c1ccc(Br)cc1)c1ccc2c(c1)OCO2`, for which the cell number change is -7.51%. Besides, the AC50 under setting [1] is 0.731 µM [rising, partial curve].
In the case of `O=C(COC(=O)/C=C/c1ccccc1[N+](=O)[O-])NC1CC1`, the cell number change was -27%. In addition, the AC50 under setting [1] is 29.1 µM [falling, single point].
Take `O=C(c1ccc(Cl)cc1)C1CCN(Cc2ccccc2)CC1`: the cell number change is 12.6%. Besides, under setting [1], the AC50 was 3.66 µM [rising, full curve].
Take `C[C@H](C(=O)C=[N+]=[N-])N1C(=O)c2ccccc2C1=O`: the cell number change was 6.1%.
For the compound `O=C(N/N=C/c1ccc(Br)cc1)c1cc[n+]([O-])cc1`, the cell number change came to 48%. Further, the half-maximal activity concentration (AC50) under setting [2] is 16.4 µM [rising, partial curve, poor fit]. Further, the AC50 under setting [1] is 13 µM [rising, partial curve].
With `Cn1c(=O)c2c(nc(NCCNC(=O)c3ccco3)n2Cc2ccccc2F)n(C)c1=O`, the cell number change is -2.86%. Further, the AC50 under setting [1] is 29.1 µM [falling, single point].
On to `O=C(Nc1ccccn1)C1CCCN1S(=O)(=O)c1ccc(Cl)cc1` (configuration not stated), for which the cell number change turned out to be 3.38%. The AC50 under setting [1] was 29.1 µM [rising, single point].
As for `Cc1ccc2oc(C(=O)N3CCC(O)(c4ccccc4)CC3)c(C)c2c1`, the cell number change came to 8.29%.
As for `COc1cc(NC(=O)COn2nnc3ccc(S(C)(=O)=O)cc32)cc(OC)c1`, the cell number change was -30.8%. Under setting [2], the AC50 was 32.6 µM [falling, single point]. In addition, under setting [1], the AC50 is 18.4 µM [falling, partial curve].
For the compound `CC(C)c1ccc(NC(=S)Nc2ccc(OC(F)(F)F)cc2)cc1`, the cell number change was determined as 12%. For the same compound, under setting [1], the AC50 is 31.6 µM [rising, single point].
On to `COc1cc(NC(=O)CCN2CCOCC2)cc(OC)c1`, for which the cell number change is 30.5%. Besides, the AC50 under setting [1] was 0.58 µM [falling, single point].
Turning to `Cc1ccc(-c2noc(CCC(=O)NCCCN3CCN(c4cccc(Cl)c4)CC3)n2)cc1`, the cell number change was -14.8%. The AC50 under setting [2] is 7.31 µM [falling, partial curve, poor fit]. In addition, the AC50 under setting [1] is 13 µM [falling, partial curve].
As for `O=C(CCN1C(=O)COc2ccccc21)NCCN1CCOCC1`, the cell number change amounted to 1.56%. Besides, the AC50 under setting [1] was 25.9 µM [falling, single point].
As for `C/C(CC(=O)NCCc1ccccc1)=N\NC(=O)COc1ccc(Br)cc1`, the cell number change was 17.9%. The AC50 under setting [1] was 5.8 µM [falling, full curve].
On to `Cc1cc(=O)oc2cc(NC(=O)COc3ccccc3[N+](=O)[O-])ccc12`, for which the cell number change is -23.5%. Moreover, under setting [2], the AC50 was 3.66 µM [falling, full curve, poor fit]. Also, the AC50 under setting [1] is 6.51 µM [falling, single point].
Consider `COC(=O)COc1ccc(S(=O)(=O)NCc2ccc3c(c2)OCO3)cc1C`, for which the cell number change was determined as 18.1%. Besides, under setting [1], the AC50 is 6.51 µM [falling, partial curve, poor fit].
Turning to `Cc1ccccc1NC(=O)COC(=O)CCc1ccccc1`, the cell number change was found to be 17.2%. Moreover, under setting [1], the AC50 was 3.66 µM [falling, single point].
On to `COc1ccc(C(=O)Nc2cccc3cccnc23)cc1OC`, for which the cell number change was found to be 33.9%. In addition, the AC50 under setting [2] was 0.259 µM [rising, full curve]. The AC50 under setting [1] was 2.91 µM [rising, full curve].
As to `COC(=O)CSc1cc([N+](=O)[O-])ccc1NC(=O)OC`, the cell number change was found to be 27.7%. Further, under setting [1], the AC50 is 0.0058 µM [rising, full curve, poor fit].
Turning to `CCc1ccc(NC(=O)C2CCN(S(C)(=O)=O)CC2)cc1`, the AC50 under setting [2] is 6.51 µM [rising, single point].
Take `O=C(CS(=O)(=O)c1ccc(F)cc1)NCc1ccccc1`: the cell number change came out at 0.129%. Under setting [1], the AC50 was 6.51 µM [rising, single point].
Turning to `Cc1[nH][nH]c(=O)c1C(c1ccc(Br)cc1)c1c(C)[nH][nH]c1=O`, the cell number change was -5.25%. Further, the AC50 under setting [1] was 29.1 µM [rising, single point].
On to `COc1ccc(N(Cc2cc3ccccc3[nH]c2=O)S(=O)(=O)c2ccc(OC)cc2)cc1`, for which the cell number change was -31.9%. Besides, the AC50 under setting [2] is 13 µM [falling, single point]. Moreover, the concentration at half-maximal activity (AC50) under setting [1] is 25.9 µM [falling, single point].
In the case of `O=C(Nc1cccc(S(=O)(=O)N2CCOCC2)c1)c1ccccc1[N+](=O)[O-]`, the cell number change was determined as 40%. The AC50 under setting [2] is 23.1 µM [rising, partial curve, poor fit]. Also, the AC50 under setting [1] is 18.4 µM [rising, partial curve, poor fit].
With `COc1ccccc1CNC(=O)COC(=O)c1ccccc1-c1ccccc1`, the AC50 under setting [2] is 1.64 µM [rising, partial curve].
As for `O=C(NCc1ccc(Cl)cc1)c1ccc(-n2cccn2)nc1`, the cell number change was 35.3%.
`N#CC(C(=O)CCN1C(=O)C2CC=CCC2C1=O)c1nc2ccccc2[nH]1` (configuration not stated): under setting [1], the AC50 was 4.11 µM [rising, partial curve].
`COc1ccc(NC(=O)COC(=O)CC23CC4CC(CC(C4)C2)C3)c([N+](=O)[O-])c1`: the cell number change was -56.7%. The AC50 under setting [2] was 25.9 µM [falling, partial curve]. In addition, the AC50 under setting [1] was 9.2 µM [falling, partial curve].
As to `CCSc1nc2ccccc2c(=O)n1Cc1ccc(F)cc1`, the cell number change was found to be 4.62%. Also, under setting [1], the AC50 was 6.51 µM [falling, single point].
As to `Brc1ccc(N=C(c2ccccc2)c2ccncc2)cc1`, the cell number change was determined as 21.7%. The AC50 under setting [2] is 0.0291 µM [rising, partial curve, poor fit].
Consider `Cc1c(C(=O)O)cccc1-c1ccc(/C=C2\SC(=O)NC2=O)o1`, for which the cell number change was -17.5%.
With `Cc1c(NC(=O)CN2C(=O)NC3(CCCCC3C)C2=O)cccc1[N+](=O)[O-]` (configuration not stated), the cell number change is -2.63%. Also, the AC50 under setting [1] was 7.31 µM [falling, partial curve, poor fit].
Turning to `CC(C)(C)c1ccc(NC(=O)COC(=O)CCN2C(=O)c3cccc([N+](=O)[O-])c3C2=O)cc1`, the cell number change turned out to be 5.94%. Further, under setting [1], the AC50 is 29.1 µM [rising, single point].
For `CC(=O)CSc1nnc2cc(C)c3ccccc3n12`, the AC50 was 0.651 µM [rising, full curve] under setting [2] and 0.82 µM [rising, full curve] under setting [1].
Take `Cc1ccc2oc(C(=O)NCC(c3ccco3)N3CCCC3)c(C)c2c1` (configuration not stated): the cell number change turned out to be 34.2%. Moreover, the AC50 under setting [2] is 4.11 µM [rising, full curve, poor fit]. The AC50 under setting [1] was 29.1 µM [rising, single point].
Consider `O=C(COC(=O)c1cccc(-n2cnnn2)c1)c1ccc(Br)cc1`, for which the AC50 runs as follows: under setting [2], 0.58 µM [falling, single point]; under setting [1], 0.146 µM [falling, full curve, poor fit].
As for `CCOC(=O)C1=C(N)Oc2cc(O)ccc2C1c1ccc(Br)cc1` (configuration not stated), the cell number change worked out at 0.971%.
Take `CCOC(=O)C1=C(C)N(C)C(=O)NC1c1c(OC)ccc2ccccc12` (configuration not stated): the cell number change is -33.9%. Besides, the AC50 under setting [2] is 5.17 µM [falling, single point].
For the compound `Cc1nnc(SCC(=O)Nc2ccc(Cl)cn2)n1Cc1ccccc1`, the cell number change turned out to be 0.204%. The AC50 under setting [1] was 0.731 µM [rising, full curve].
For the compound `Cc1ccccc1/C=c1\s/c(=C\C(=O)C(C)(C)C)[nH]c1=O`, the cell number change is -108%. Moreover, under setting [2], the AC50 is 29.1 µM [falling, single point].
Regarding `COc1ccccc1N1CCN(CC(=O)c2c(C)n(C)c3ccccc23)CC1`, the cell number change was -0.646%. Further, the AC50 under setting [1] was 29.1 µM [rising, single point].
Turning to `CC(=O)Nc1ccc(NC(=O)CNC(=O)c2cccc(C)c2)cc1`, the cell number change was found to be 4.78%. Also, the AC50 under setting [1] is 18.4 µM [rising, partial curve].
On to `COc1ccc(C(=O)Nc2ccc3nc(N4CCN(C)CC4)cc(C)c3c2)c(OC)c1`, for which the cell number change came out at 29.8%. Further, the AC50 under setting [2] is 0.82 µM [rising, full curve].
In the case of `CN1/C(=C\C(=O)COC(=O)C2COc3ccccc3O2)C(C)(C)c2ccccc21` (configuration not stated), the cell number change is -46.8%. Also, the AC50 under setting [2] is 1.03 µM [falling, full curve]. Besides, the AC50 under setting [1] is 2.31 µM [falling, full curve].
On to `O=C1CCC(C(=O)OCc2c(Cl)cccc2Cl)N1` (configuration not stated), for which the cell number change was -40.2%. Further, under setting [2], the AC50 was 20.6 µM [falling, single point]. Under setting [1], the AC50 is 23.1 µM [falling, single point].
Take `CCN(CC)CCCN(Cc1cc2cc3c(cc2[nH]c1=O)OCO3)C(=S)NCCCOC`: the cell number change is -10.8%.
Consider `CSc1nc2c(cnn2-c2ccc(C)c(C)c2)c(=O)[nH]1`, for which the cell number change was -1.84%. The AC50 under setting [1] is 0.13 µM [falling, full curve, poor fit].
For `CSCC[C@H](NC(=O)Cc1c(C)c2c(cc(C)c3c(C)coc32)oc1=O)C(=O)O`, the cell number change amounted to 22.5%. The AC50 under setting [1] was 29.1 µM [rising, single point].
`O=C(N/N=C\c1ccc(Br)o1)C1COc2ccccc2O1` (configuration not stated): the cell number change was 12.3%. Moreover, under setting [2], the AC50 was 0.116 µM [rising, full curve]. For the same compound, the AC50 under setting [1] is 0.366 µM [rising, full curve, poor fit].
As for `O=C1C(C=NCc2ccncc2)=C(O)c2ccccc21`, the cell number change is 20.6%. Moreover, the AC50 under setting [1] is 6.51 µM [rising, single point].
Regarding `Cn1cccc1/C=C1\SC(=S)N(NC(=O)c2ccc(Cl)cc2)C1=O`, the cell number change was 3.07%. For the same compound, the AC50 under setting [1] is 2.06 µM [falling, partial curve].
For `O=C(CN1C(=O)C2CC=CCC2C1=O)Nc1nnc(C2CC2)s1` (configuration not stated), the cell number change is -21.6%. Besides, the AC50 under setting [2] was 4.11 µM [falling, full curve, poor fit].
